# Measured values: PubChem BioAssay AID2685 (National Center for Advancing Translational Sciences (NCATS), 2010)
# Among all 320,000 compounds or so, about 2,100 (0.66%) were called active. Inconclusive means that the source gave no clear call. Such entries were picked first, then a sample of the others. Calls follow the shape of the dose curve; as a rule, active = well fitted inhibition curve with a large enough effect in the signal ratio, with a control signal flat (not every such curve was filed as active); inconclusive = small, poorly fitted or top-dose-only effect, or effect the other way, or a change in a side signal; inactive = flat fitted curve, though single readings scatter; the % refers to the signal ratio. Where the call is inconclusive, the potency comes from a doubtful curve fit.
# Experiment: qHTS Assay for Lipid Storage Modulators in Drosophila S3 Cells
# Conditions: BODIPY lipid droplet fluorescence, 18-24 h, cells fed with added oleic acid; lipid storage change, negative = inhibition: at 46.1 µM (top of the series) unless noted
# In short: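 Drosophila S3 cells got compounds at several concentrations plus oleic acid (400 uM solution). Laser-scanning cytometry with 488 nm excitation read lipid droplets at 500-530 nm and cells at 575-640 nm. Percent activity was relative to 20 uM Triacsin C.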
# % is scaled to controls: 0 for no effect and ±100 for the full control effect; potency is read from the fitted curve at half-maximal effect.
SMILES,"lipid storage change, negative = inhibition",Potency
Cc1ccc(NC(=O)COC(=O)CC2SC(N3CCCC3)=NC2=O)cc1 (stereo not given),inconclusive: -18.7%,
COc1cc(=O)[nH]c(SCC(=O)Nc2nc3c(s2)CCCC3)n1,,"inconclusive: 0.58 µM [falling, single point]"
Cc1sc2nc(SCC(=O)OC(C)C)n(C)c(=O)c2c1C,inconclusive: -3.5%,
COCCN(Cc1cn(C)nc1-c1ccc(Oc2ccccc2)cc1)C(C)C,,"inconclusive: 3.66 µM [activator, full curve]"
CN(C1CCCCC1)S(=O)(=O)c1ccc2c(c1)CCC(=O)N2,inconclusive,
N#Cc1ccc(NC(=O)CNc2cc(S(=O)(=O)N3CCOCC3)ccc2NCC2CCCO2)cc1 (stereo not given),,"inconclusive: 6.51 µM [rising, single point]"
COc1cccc(NC(=O)CNC(=O)c2ccc(C)o2)c1,,"inconclusive: 1.16 µM [activator, full curve, poor fit]"
COc1ccc(C(=O)CSc2nc3[nH]ncc3c(=O)[nH]2)cc1,inconclusive: -19.5%,
CN(Cc1ccccc1)C(=O)CSc1nc2ccccc2c(=O)n1Cc1ccco1,inconclusive: 11.1%,
Cc1c(NC(=O)CSc2ccccc2Cl)c(=O)n(-c2ccccc2)n1C,inconclusive: -50.9%,
Cc1ccc(C(=O)C(C)OC(=O)CCN=C2NS(=O)(=O)c3ccccc32)cc1 (stereo not given),inconclusive,
CC(=O)NN1C(=O)/C(=C/c2ccc(Br)o2)SC1=S,inconclusive: -26.3%,
CN(C)c1cccc(C(=O)NCCCSc2ccccc2)c1,inconclusive: 4.29%,
Cn1c(CCCOc2ccc(Cl)cc2Cl)nnc1SCC(=O)Nc1cccc(F)c1,,"inconclusive: 18.4 µM [falling, single point]"
COCC(=O)Nc1ccc([N+](=O)[O-])cc1C,,"inconclusive: 9.2 µM [activator, partial curve, poor fit]"
CC1=Nn2c(nc3sc4c(c3c2=O)CCCC4)SC1,inconclusive: -56.1%,
COc1ccc(-c2nnc(SCC(=O)c3ccc(O)cc3O)o2)cc1,inconclusive: 59.6%,
CN1CCN(C(=S)SCc2nc(N)nc(Nc3ccc(F)cc3)n2)CC1,,"inconclusive: 29.1 µM [falling, single point]"
O=C(N/N=C/c1ccco1)c1cc(-c2cccc(Br)c2)nc2ccccc12,inconclusive: 39%,
O=C(/C=C/c1ccccc1O)c1ccc(Cl)cc1,,"inconclusive: 29.1 µM [falling, single point]"
c1ccc(NC2=NCCN2CC2CCCC2)cc1,inconclusive: -32.8%,
Cc1ccn2cc(C(=O)Nc3nnc(C)s3)nc2c1,inconclusive: -17.1%,
Fc1ccc(CN2CCN(c3ncccn3)CC2)cc1,inconclusive: 12.7%,
O=C(N/C(=C/c1ccc(F)cc1)C(=O)N1CCOCC1)c1ccccc1,,"inconclusive: 29.1 µM [activator, single point]"
CCC(C)(C)NC(=O)C(c1ccc(F)cc1)N(CCOC)C(=O)CCC(=O)Nc1nccs1 (stereo not given),,active: 14.6 µM

SMILES,"lipid storage change, negative = inhibition",Potency
Cn1ncc(Br)c1C(=O)NC1CCCCCC1,inconclusive: 107%,
CCc1ccc(NC(=O)CSc2nnnn2-c2cccnc2)cc1,,"inconclusive: 29.1 µM [activator, single point]"
CCCOC(=O)Nc1ccc(S(=O)(=O)Nn2cnnc2)cc1,,"inconclusive: 0.13 µM [activator, full curve, poor fit]"
C=CCNC(=O)CN(c1ccc(F)c(Cl)c1)S(C)(=O)=O,inconclusive: -7.05%,
CC1=CC(C)(C)Nc2ccc(OS(=O)(=O)c3ccc(C)cc3)cc21,,"inconclusive: 20.6 µM [falling, partial curve]"
CCOC(=O)CCN(Cc1cccs1)S(=O)(=O)c1ccc(Cl)cc1,inconclusive: 7.13%,
O=C(Nc1ccc(Br)cc1)c1ccc(Br)c(S(=O)(=O)Nc2cccnc2)c1,,"inconclusive: 6.51 µM [activator, partial curve]"
O=C1SC(c2ccccc2)=N/C1=C/c1ccco1,inconclusive: 14.8%,
COC(=O)c1cn(-c2ccccc2)nc1C(=O)OC,,"inconclusive: 6.51 µM [rising, single point]"
COc1ccc(NC(=S)NC(=O)/C=C/c2ccco2)c(OC)c1,inconclusive: -30.6%,
Cc1ccc(C(c2cc(Cl)c3cccnc3c2O)N2CCN(C)CC2)cc1 (stereo not given),inconclusive: -13.8%,
CN1C(=O)C(O)(C2COC(C)(C)CC2=O)c2ccccc21 (stereo not given),inconclusive: -19.4%,
Cc1ccccc1OCC(=O)N/N=C/c1ccncc1,inconclusive: -3.75%,
CC(=O)OCC1=C(C(=O)O)N2C(=O)C(NC(=O)COc3ccc(F)cc3)C2SC1 (stereo not given),inconclusive: 18.9%,
O=C1NCCCC1C(=O)N/N=C/c1ccc(Cl)cc1 (stereo not given),inconclusive: 0.576%,
COc1ccc(COC(=O)C2=C(C)NC(=O)NC2c2ccccc2F)cc1 (stereo not given),inconclusive: -41.6%,
Cn1c(=O)c(Nc2ccc(Cl)cc2)c2c3c(cccc31)C(=O)c1ccccc1-2,,"inconclusive: 16.4 µM [falling, single point]"
Cc1ccc(OCc2cn3cccnc3n2)cc1,,"inconclusive: 29.1 µM [activator, single point]"
CCCCN(CCCC)S(=O)(=O)c1ccc(NC(=O)c2ccc([N+](=O)[O-])cc2Cl)cc1,,"inconclusive: 16.4 µM [falling, partial curve, poor fit]"
COc1ccccc1NC(=O)Cn1cnc2sc(C)c(S(=O)(=O)N3CCCCC3)c2c1=O,inconclusive: 19.1%,
COc1cc(OC)cc(C(=O)OCC(=O)Nc2ccc3[nH]c(=O)[nH]c3c2)c1,inconclusive,
COc1cc2nc(C3CCC3)nc(N3CCN(c4ccccc4OC)CC3)c2cc1OC,inconclusive: 16.5%,
O=C(Cn1c2c(sc1=O)C1c3ccccc3OCC1CS2)Nc1ccc(Cl)cc1 (stereo not given),inconclusive: -2.01%,
CCC(C)NC(=O)CN1C(=O)CC(C)(C)S(=O)(=O)c2ccccc21 (stereo not given),inconclusive: -12.7%,
COc1ccccc1C(=O)n1nc(C)cc1C,inconclusive: 18.3%,
